In patent US11306076B2, “Silibinin lipoic acid ester with hepatoprotective activity and a method of preparing the same” (XI'AN TAIKOMED PHARMACEUTICAL TECHNOLOGY CO., LTD., priority 2020, dated 2022):

Assay: DPPH radical scavenging activity assay
Assay type: biochemical
Conditions: 517 nm; for Absorbance Ai: sample + DPPH solution, 30 min; for Absorbance Aj: sample + toluene (no DPPH)
Source text: 2,2-Diphenyl-1-picryl hydrazyl (DPPH) is an organic compound composed of a stable organic radical. In the DPPH molecule, due to the presence of multiple electron-withdrawing —NO2 and large π bonds of the benzene ring, nitrogen free radical is stabilized. Its methanol solution is purple and has a maximum absorption peak at 517 nm. After the addition of an antioxidant, DPPH captures an electron to be paired with the free electron, and the purple fades and turns into a yellow substance. The absorption at 517 nm disappears, and the degree of fading is quantitatively related to the number of electrons it captures. Based on this principle, a spectrophotometer is used to detect the change of the absorbance of the DPPH radical and the sample solution, and the ability of the sample to provide hydrogen atoms and scavenge free radicals can be measured.
Preparation of DPPH solution: measuring exact amount of 2,2-diphenyl-1-picryl hydrazyl (DPPH) and dissolving in toluene to prepare a 0.2 mmol/L DPPH solution, stored at 0° C. in dark.
Preparation of test solution: Vc (vitamin C, positive control), compound of formula (I) (sample), silibinin (control) and lipoic acid (control). The sample solution was subjected to gradient dilution with toluene, and three sets of controls were separately dissolved in a test tube with a certain amount of toluene to prepare the same concentration gradient as the sample.
Sample liquid absorbance measurement: Take 2 mL of sample solution (Table 2 Vc, B, C), add 2 mL of DPPH solution with concentration of 2×10^−4 mol/L, mix and react in the dark at room temperature for 30 min, adjust to zero with toluene, and measure at 517 nm. The absorbance Ai was simultaneously measured for the absorbance Aj of 2 mL of toluene mixed with 2 mL of the sample solution and the absorbance Ao of 2 mL of DPPH solution mixed with 2 mL of toluene (the experimental results are shown in Table 3).
clearance rate (%)=[1−(Ai−Aj)/Ao]*100% Clearance calculation: […]

Row | SMILES | Absorbance Ai (1.76 ppm) | Absorbance Ai (8.80 ppm) | Absorbance Ai (21.12 ppm) | Absorbance Ai (42.24 ppm) | Absorbance Ai (79.20 ppm) | Absorbance Ai (112.64 ppm) | Absorbance Ai (281.60 ppm) | Absorbance Ai (492.80 ppm) | Absorbance Ai (792.00 ppm) | Absorbance Ai (915.20 ppm) | Absorbance Aj (1.76 ppm) | Absorbance Aj (8.80 ppm) | Absorbance Aj (21.12 ppm) | Absorbance Aj (42.24 ppm) | Absorbance Aj (79.20 ppm) | Absorbance Aj (112.64 ppm) | Absorbance Aj (281.60 ppm) | Absorbance Aj (492.80 ppm) | Absorbance Aj (792.00 ppm) | Absorbance Aj (915.20 ppm)
1 | O=C(O)CCCCC1CCSS1 (stereo not shown) [C, Lipoic acid] | 0.883 | 0.969 | 0.797 | 0.730 | 0.626 | 0.579 | 0.453 | 0.330 | 0.291 | 0.267 | 0.053 | 0.045 | 0.048 | 0.045 | 0.057 | 0.056 | 0.043 | 0.042 | 0.040 | 0.031
2 | COc1cc(C2Oc3cc([C@H]4Oc5cc(O)cc(O)c5C(=O)[C@@H]4O)ccc3OC2COC(=O)CCCCC2CCSS2)ccc1O (stereo partly drawn) [Compound of Formula (I), (3-(4-hydroxy-3-methoxyphenyl)-6-((2R,3R)-3,5,7-trihydroxy-4-oxochroman-2-yl)-2,3-dihydrobenzo[b][1,4]dioxin-2-yl)methyl 5-(1,2-dithiolan-3-yl)pentanoate] | 0.736 | 0.682 | 0.598 | 0.509 | 0.300 | 0.226 | 0.203 | 0.155 | 0.134 | 0.099 | 0.039 | 0.045 | 0.059 | 0.061 | 0.057 | 0.059 | 0.054 | 0.049 | 0.055 | 0.048
